Measured values from PubChem BioAssay AID623959 (National Center for Advancing Translational Sciences (NCATS), 2012).
Hit rate of the full screen: of about 1,400 compounds, fewer than 10 were called active. Not shown: some 8% with an inconclusive outcome. Calls come from the whole dose curve; as a rule, active = well fitted curve in the direction sought with a large enough effect; inconclusive = small, poorly fitted or top-dose-only effect, or another doubt; inactive = no such curve, though single readings can be large or run the other way. Some of the results follow.

The chains behind the UniProt entries cited, without tags or fusion partners.
UniProt Q8NER1, whole entry, looked up: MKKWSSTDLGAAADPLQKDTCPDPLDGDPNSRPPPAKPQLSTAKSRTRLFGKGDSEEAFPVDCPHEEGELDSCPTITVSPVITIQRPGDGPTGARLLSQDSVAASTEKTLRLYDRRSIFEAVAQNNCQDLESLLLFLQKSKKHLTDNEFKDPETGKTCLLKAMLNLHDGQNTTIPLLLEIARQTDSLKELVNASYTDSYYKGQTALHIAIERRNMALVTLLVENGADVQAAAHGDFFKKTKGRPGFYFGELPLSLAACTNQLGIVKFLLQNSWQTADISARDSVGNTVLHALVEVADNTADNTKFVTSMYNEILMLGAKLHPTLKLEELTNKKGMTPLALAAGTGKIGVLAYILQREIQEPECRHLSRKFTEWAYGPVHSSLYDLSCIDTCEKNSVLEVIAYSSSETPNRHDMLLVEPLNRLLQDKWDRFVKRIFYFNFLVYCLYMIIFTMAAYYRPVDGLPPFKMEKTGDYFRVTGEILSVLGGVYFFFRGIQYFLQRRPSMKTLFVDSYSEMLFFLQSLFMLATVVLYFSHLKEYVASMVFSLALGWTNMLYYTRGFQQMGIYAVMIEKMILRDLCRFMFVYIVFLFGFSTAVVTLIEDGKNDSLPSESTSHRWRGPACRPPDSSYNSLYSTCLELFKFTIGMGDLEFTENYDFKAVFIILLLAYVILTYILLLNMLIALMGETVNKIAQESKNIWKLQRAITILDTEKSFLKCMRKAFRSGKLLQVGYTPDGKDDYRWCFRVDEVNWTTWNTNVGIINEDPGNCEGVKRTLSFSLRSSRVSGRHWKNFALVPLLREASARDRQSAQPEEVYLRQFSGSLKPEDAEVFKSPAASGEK

target: Transient receptor potential cation channel subfamily V member 1 (Homo sapiens) (UniProt Q8NER1); experiment: qHTS Assay for Compounds that Act as Potentiators of the Vanilloid Receptor 1: Hit Validation; settings: TRPV1-expressing cells, Fluo-8 calcium influx, capsaicin EC20; series mostly up to 42.1 µM; activity change, positive = potentiation: at the top concentration; note: % of control where 0% means no effect
Text: The transient receptor potential ion channel, family V, number 1, (TRPV1) is one of the most important molecular transducers of painful stimuli and a potential target for analgesic drug development. Although recent clinical trials with orthosteric antagonists have not produced a successful drug because of a hyperthermia side effect and their tendency to block thermal noxious pain, this ion channel is undeniably well placed in the pain pathway, and the idea of blocking pain signals before they enter the CNS is an excellent concept and of proven efficacy when TRPV1 agonists are used. We propose a new approach involving allosteric modulation to impose an activity-dependent constraint within the context of inflammation and tissue damage that would alter the responsiveness of the channel in a way that an orthosteric vanilloid antagonist cannot achieve. We believe that the allosteric modulator approach has not been explored for this target. The main goal of this proposal is to identify additional, new, potent allosteric modulators of TRPV1 that can be used to investigate TRPV1 function. Our recent report provides evidence of proof of concept, but the compounds are just at the edge of utility in terms of potency. […] The question of whether they can be used as analgesic agents is complex, but if suitable compounds are identified then testing for analgesic properties will be conducted. Compounds identified as agonists were re-tested in the primary screen for hit validation. NIH Chemical Genomics Center [NCGC] NIH Molecular Libraries Probe Centers Network [MLPCN] MLPCN Grant: MH089480 Assay Submitter (PI): Michael Iadarola, National Institute of Dental and Cranofacial Research
Upon TRPV1 activation in TRPV1 cells, the channel opens and extracellular cations flow through the channel into the cytosol. A calcium binding dye (Fluo-8) becomes fluorescent when bound to calcium. This dye is pre-loaded into cells and is used as a marker for calcium influx. The amount of accumulated calcium is precisely quantified using the FDSS kinetic reader and the calcium dye. For the HTS assay, freshly prepared cells are plated at a density of 2000/well in 3 ul medium in 1536-well plates and cultured overnight at 35.5C. Cells will be loaded with 1 ul of the homogeneous calcium dye (ABD Bioquest) at room temperature for 40 to 90 minutes. Plates will be loaded into the FDSS kinetic reader and a 1 sec / cycle for 10 second baseline signal will be measured. Compound library will then be added with a pintool at 23 nl and measured kinetically for 3 minutes. This portion of the read is considered the agonist portion of the screen. Following the 3 minutes of incubation, an on board pipettor will deliver 1 ul of capsaicin for a final concentration equal to the EC20. Signal will be measured kinetically for an additional 2 minutes. This portion of the read is considered the allosteric enhancer portion of the screen. The FDSS reader has a standard filter set capable of measuring calcium bound Fluo-8 (ex=480 and em=520 nm).

Activity change, positive = potentiation, inactive:
Cc1ccc(NC(=O)c2cc3c(s2)CCCC3)cc1 -39.6%
CC1CCN(C2=NC(=O)/C(=C/c3ccccc3F)S2)CC1 -39.3%
O=C1NC(Cc2c[nH]c3ccccc23)C(=O)N1Cc1ccc(CN2C(=O)NC(Cc3c[nH]c4ccccc34)C2=O)cc1 (stereo unspecified) 9.74%
CCCCC(=O)Nc1nc2c(s1)COc1ccccc1-2 -25%
Cc1cc(CNC(=S)Nc2ccc(Br)cc2Cl)nn1C -37.7%
CCN(CC)S(=O)(=O)c1ccc(/C=C/C(=O)Nc2ccc(N3CCOCC3)cc2)cc1 -34.5%
CCC1(C)Cc2c(sc(NC(=O)CCC(=O)O)c2C#N)CO1 (stereo unspecified) -7.36%
Nc1nnc(SCc2cccnc2)s1 -7.07%
CC1=C(C)/C(=N\OS(=O)(=O)c2ccc(C)cc2)C=CC1=O -27.4%
O=C(Nc1ccccc1N1CCN(c2ccccc2)CC1)C12CC3CC(CC(C3)C1)C2 -24.7%
CN(C(N)=S)c1ccccc1 -17.3%
Nc1ccc(C(=O)Nc2ccccc2N)cc1 -7.41%
CC(C)(C)NC(=O)CSc1nnc(-c2ccncc2)o1 -0.625%
COC(=O)c1cc(NC(=O)Nc2ccccc2)ccc1Cl -37.8%
CCOC(=O)[C@H]1[C@H]2COc3ccc(OC)cc3[C@@H]2N2C(=O)c3cc(F)c(F)cc3NC(=O)[C@@]12C -38.2%
CCOC(=O)[C@H]1[C@H]2COc3ccc(OC)cc3[C@@H]2N2C(=O)c3cc(OC)ccc3NC(=O)[C@@]12C -39.5%
CCc1cccc(C)c1NC(=S)N(CCCN1CCN(C)CC1)Cc1cccs1 -8.28%
COc1ccc(CC(=O)N2CCN(c3cccc(Cl)c3)CC2)cc1OC -36.8%
COc1ccc(CCN2C(=O)c3[nH]nc(-c4ccccc4O)c3C2c2cccc(Cl)c2)cc1 (stereo unspecified) 1.93%
Cc1nc([N+](=O)[O-])c(C(=O)OCc2ccccc2)n1C -4.18%
CC(C)Cc1cc(C(=O)Nc2sc3c(c2C#N)CCC3)no1 -1.28%
CC(C)N(Cc1nc(-c2ccc(Cl)cc2)no1)C(=O)CCC1CCCC1 -8.72%
COC(=O)COc1ccc2occ(C(C)=O)c2c1 -2.24%
CCCCCCCCCCCCCCCC(=O)NCCc1c[nH]c2ccccc12 -3%
NS(=O)(=O)c1ccc(Cl)cc1[N+](=O)[O-] -11.8%
COc1ccc(NC(=O)C2C3C=CC(O3)C2C(=O)O)cc1 (stereo unspecified) -2.88%
O=C(O)c1ccc(Br)cn1 -5.55%
N#C/C(=C\c1ccc(O)cc1)C(=O)NCc1cccc(Cl)c1 -6.49%
CC(=O)c1ccc(Nc2ncnc3c2oc2ccccc23)cc1 -38.7%
CCCCNc1ncnc2c1nnn2Cc1ccccc1Cl -5.11%
CCOCCCn1c(=S)[nH]c2cc(C(=O)NCCCN(CC)CC)ccc2c1=O -6.38%
CCCOc1ccc(CNC(=S)Nc2ccccc2)cc1Cl -37.7%
O=C(NCCCc1ccccc1)c1ccc(F)cc1 -38.9%
CCOc1ccc(NS(=O)(=O)c2ccc(OCC(=O)NCCCOC)cc2)cc1 2.17%
CN1CCN(c2ccccc2NC(=O)c2ccc([N+](=O)[O-])o2)CC1 -7.02%
COc1cccc(/C=N/n2c(SC)nnc2-c2ccccc2)c1O -38.9%
Cc1ccc(NC(=O)CNCc2ccccc2Cl)cc1S(=O)(=O)N(C)C 4.09%
CC1CCN(C(=O)/C=C/c2ccc(C(C)(C)C)cc2)CC1 -38.1%
COc1ccc(CNC(=O)CCSc2ccc(F)cc2)cc1OC -34.4%
CCC1CCCCN1CCCNC(=O)c1cc2c(=O)oc3ccc(C)cc3c2s1 (stereo unspecified) -1.36%
Cc1nc(N2CCOCC2)c2c(C)c(C(=O)Nc3ccccc3C(F)(F)F)sc2n1 -37.7%
NCCCn1c(C(=O)c2cc(Cl)c(N)c(Cl)c2)c2ccccc2[n+]1[O-] 2.46%
O=C(COC(=O)/C=C/C(=O)N1CCN(c2ccccc2)CC1)NCc1ccc(F)cc1 -6.3%
Cc1cccn2c(=O)c3cc(C(=O)NCC4CCCO4)c(=N)n(C4CCCCC4)c3nc12 (stereo unspecified) -24.9%
Cc1ccc2nc(NC(=O)CS(=O)(=O)Cc3ccccc3)sc2c1 -6.24%
Cc1cc(C)cc(C(=O)Nn2cnnc2)c1 -5.31%
Clc1nc2ccccc2nc1-c1ccccc1 -15.2%
CS(=O)(=O)N(CC(=O)N1CCc2ccccc2C1)Cc1ccccc1 -5.56%
CC(OC(=O)CC1CCCCC1)C(=O)Nc1ccc(F)cc1 (stereo unspecified) -39%
CCCCOc1ccc(/C=C/C2=CC(C)(C)NC(=S)N2)cc1OCC -7.3%
Cc1cc(C)c2nc(-c3ccccn3)cc(C(=O)NCc3cc(C)n(C)n3)c2c1 -32.2%
O=C(Nc1ncnc2sc3c(c12)CCC3)c1ccco1 -6.91%
O=C(CNc1cccc(C(F)(F)F)c1)N/N=C/C1CCCCC1 -3.34%
Cc1ccc(N2CCN(C(=O)N3CCOCC3)CC2)c(C)c1 -39.1%
Nc1nn(S(=O)(=O)c2cccc3nsnc23)cc1-c1ccc(Br)cc1 -5.21%
CC(=O)c1cccc(NC(=O)/C(=C\c2cccnc2)NC(=O)c2ccc(C)cc2)c1 3.38%
CC(=O)c1cccc(NC(=O)/C=C/c2ccc([N+](=O)[O-])s2)c1 -33.4%
O=[N+]([O-])c1ccc(/C=C/c2ccc3cccc([N+](=O)[O-])c3n2)cc1 -1.42%
COc1ccc(-c2cc(C(F)F)n3ncc(C(=O)Nc4cc(C)on4)c3n2)cc1 -5.22%
CCCOc1ccc(/C=C/c2[nH]c(=O)[nH]c(=O)c2[N+](=O)[O-])cc1OCC -3.16%
Cc1oc(-c2ccc(Cl)cc2)nc1CN1CCC(C(=O)N2CCN(Cc3ccccc3)CC2)CC1 25.8%
COc1ccc(C(=O)CC(=O)C(=O)Nc2cccc(C(C)=O)c2)cc1 -1.31%
O=C(NC(NC(=S)Nc1ccccc1C(=O)O)C(Cl)(Cl)Cl)c1ccccc1 (stereo unspecified) -13.4%
COC(=O)C(C)(C)ONC(=O)Nc1ccccc1Cl -5.01%
CCN(CC(=O)Nc1ccc2c(c1)OCCO2)C(=O)c1ccc(C(F)(F)F)cc1 -5.62%
O=C(c1cc(-c2ccc(Cl)cc2Cl)on1)N1CCOCC1 -39.2%
O=C(NCCCn1ccnc1)C(=O)NCC1OCCN1S(=O)(=O)c1ccccc1 (stereo unspecified) -8.01%
Cc1ccc(NC(=O)CCS(=O)(=O)c2ccc3c(c2)NC(=O)C(C)S3)cc1Cl (stereo unspecified) 1.02%
COc1ccc(CCNc2nc(-c3cccnc3)nc3ccccc23)cc1OC -32.4%
CS(=O)(=O)N(CC(=O)NCc1ccco1)c1ccc(OCc2ccccc2)cc1 -4.78%
CC(C)(C)Cc1nnc(NC(=O)CSc2ccccc2)s1 -6.48%
c1ccc2c(c1)oc1c(Nc3ccc(CN4CCOCC4)cc3)ncnc12 -34.7%
Cc1nc2ccccc2cc1OCc1ccc(Cl)cc1 -38.1%
CCOC(=O)c1ccc(NC(=O)/C=C/c2cccs2)cc1 -35.9%
CC(C)C(=O)c1cn(CC(=O)N2CCCc3ccccc32)c2ccccc12 -5.07%
COc1ccc2c(c1)sc(=N)n2CC(=O)Nc1cc(C)cc(C)c1 -8.63%
CC(Oc1cccc(Cl)c1)C(=O)Nc1nc(-c2ccccn2)cs1 (stereo unspecified) -5.61%
CC(C)c1ccc(NC2CCCN(C(=O)c3cccc4nccnc34)C2)cc1 (stereo unspecified) -27.2%
O=C(c1cc2cc(Br)cc(Br)c2oc1=O)N1CCOCC1 -35.7%
Cc1ccc(S(=O)(=O)/N=C(/c2ccccc2)N(C)c2ccc(O)cc2)cc1 -11%
c1ccc2c(c1)c1c3n2CCNC3CCC1 (stereo unspecified) -5.1%
O=C(/C=C\c1cn(-c2ccccc2)nc1-c1ccc2c(c1)OCCO2)N1CCOCC1 -39.2%
CCN1CCN(Cc2nc3c(c(=O)n(C)c(=O)n3C)n2CC(=O)c2ccccc2)CC1 -9.16%
CC(=O)NC(CC(=O)NCCN1C(=O)S/C(=C\c2ccccc2)C1=O)c1ccccc1 (stereo unspecified) -8.32%
O=C(NCc1cccs1)C1CCC(CNS(=O)(=O)c2cccc3nsnc23)CC1 (stereo unspecified) -4.82%
COc1cccc(/C=C/C(=O)Nc2cccc(C(C)=O)c2)c1OC -16.5%
CCOc1ccccc1NC(=O)CCc1nnc2ccc(N3CCC(C)CC3)nn12 -6.18%
Cc1ccc(S(=O)(=O)N(CC(=O)N2CCOCC2)CC(=O)N2CCOCC2)cc1 -6.45%
Cn1cc(Br)c(C(=O)n2cc(Br)cn2)n1 -5.04%
O=C(Nc1nc(-c2ccccc2)cs1)c1ccc(Br)o1 -37.4%
CN(C)/C=C/C(=O)c1nnn(C2CCCCC2)c1NC1CCCCC1 -35.6%
COc1ccc(C(C#N)c2cnccn2)cc1OC (stereo unspecified) 4.57%
COc1ccccc1-n1c(SCC(N)=O)nc2sc3c(c2c1=O)CCC3 -7.03%
COc1ccccc1NS(=O)(=O)c1cc(NC(=O)c2cccs2)ccc1N1CCCC1 -3.26%
[O-]/C(=C(\C(=S)Nc1ccc(Cl)cc1)[n+]1ccccc1)c1ccc(OC(F)F)cc1 -7.02%
Cc1ncsc1CCC(=O)N1CCCC(Nc2ccc(C(C)C)cc2)C1 (stereo unspecified) -39.8%
Cc1cc(NC(=O)c2cc(-c3ccccc3Cl)nc3ccccc23)no1 -0.359%
CC(C)Sc1ccc(C(=O)Nc2ccc(F)cc2F)cn1 -31.7%
COC(=O)c1nnn(-c2nc(N(C)C)nc(N(C)C)n2)c1C 4.29%
CCC(Sc1ccccn1)C(=O)Nc1nnc(C)s1 (stereo unspecified) -15.1%
COc1ccc(C=C2C(=O)c3ccccc3C2=O)cc1O 3.15%
O=C(N/N=C\c1ccc(F)cc1)c1ccc(F)cc1 -35.9%
CCOC(=O)c1ccc(Nc2nnc(C)c3ccccc23)cc1 -37.7%
O=C(Nc1ccc(C(F)(F)F)cc1)c1ccc2ncsc2c1 -39%
O=C(CN1CCOCC1)Nc1nc(-c2ccccc2)cs1 -36.1%
CCOc1ccc(C(=O)OCC(=O)N2CC(C)OC(C)C2)cc1OCC (stereo unspecified) 2.03%
COc1ccc(CCNC(=O)c2noc3c2CCCC3)cc1OC -9.36%
COc1ccc(/C=C(\NC(=O)c2ccccc2)C(=O)NCc2cccnc2)cc1 -2.1%
O=C(Cc1ccc(F)cc1)Nc1nc(-c2ccc(F)cc2)cs1 -37.2%
Clc1cc(Br)ccc1OCCOCCN1CCOCC1 -0.348%
Cc1cc(C)cc(NC(=O)COc2ccc3c(C)c(Cc4ccccc4)c(=O)oc3c2)c1 5.36%

Quoted at random: 7 records from the list, in no set order.
Activity change, positive = potentiation, inactive:
c1ccc2c(c1)oc1c(Nc3ccc(CN4CCOCC4)cc3)ncnc12 -34.7%
COc1ccc(CNC(=O)CCSc2ccc(F)cc2)cc1OC -34.4%
Cc1cc(NC(=O)c2cc(-c3ccccc3Cl)nc3ccccc23)no1 -0.359%
CC(=O)c1cccc(NC(=O)/C(=C\c2cccnc2)NC(=O)c2ccc(C)cc2)c1 3.38%
CCN(CC(=O)Nc1ccc2c(c1)OCCO2)C(=O)c1ccc(C(F)(F)F)cc1 -5.62%
COc1ccc(CCNC(=O)c2noc3c2CCCC3)cc1OC -9.36%
N#C/C(=C\c1ccc(O)cc1)C(=O)NCc1cccc(Cl)c1 -6.49%

A section from the list above, for reference:
Activity change, positive = potentiation, inactive:
COc1ccc(CCN2C(=O)c3[nH]nc(-c4ccccc4O)c3C2c2cccc(Cl)c2)cc1 (stereo unspecified) 1.93%
Cc1nc([N+](=O)[O-])c(C(=O)OCc2ccccc2)n1C -4.18%
